Source: US20220221455A1 (GlaxoSmithKline, published 2022)

Columns and labels:
Fibrinogen = test: SPR (Biacore, CM-5 sensor chips)
Laminin = test: SPR (Biacore, CM-5 sensor chips)

B1: PilA (protein)
chain: TKKAAVSELLQASAPYKADVELCVYSTNETTNCTGGKNGIAADITTAKGYVKSVTTSNGAITVKGDGTLANMEYILQATGNAATGVTWTTTCKGTDASLFPANFCGSVTQ
What does the source list for B1?
binding (Fibrinogen): no binding; binding (Laminin): no binding

No constants are given. Whether binding was seen depends on the method and setting.
